Measured values as given in the supplement of paper PMC8104966.
This is one part of the list. This data set is noisy: repeats of one test often differ as much as different tests do.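 U2OS cells carrying ACE2 were mixed with U2OS cells carrying full-length spike, and fusion was scored by imaging as the share of nuclei showing both cell types' fluorescent markers. A compound counts as an inhibitory hit when it is non-toxic and its fusion z-score falls below -3, meaning more than three standard deviations below the plate's DMSO wells.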

system: U2OS ACE2 x SARS-CoV-2 spike co-culture; experiment: cell-cell fusion (fraction fused) z-score vs plate DMSO control; higher = more fusion; conditions: 30 µM; 5 h; toxicity class: non-toxic, passed QC

Row | Compound | cell-cell fusion (z-score)
1 | COc1ccccc1-c1coc2cc(O)ccc2c1=O | inactive: 1.93
2 | CCN1C(=O)NC(c2ccccc2)C1=O (configuration not stated) | inactive: 3.48
3 | C[C@@H]1O[C@@H](O[C@H]2C[C@@H](O)[C@]3(CO)[C@H]4[C@H](O)C[C@]5(C)[C@@H](C6=CC(=O)OC6)CC[C@]5(O)[C@@H]4CC[C@]3(O)C2)[C@H](O)[C@H](O)[C@H]1O [Ouabain] | inactive: 1.41
4 | Cl.Cl.N=C(N)c1ccc(N)cc1 [4-Aminobenzamidine dihydrochloride] | inactive: 1.72
5 | C=C[C@@]1(C)CC(=O)[C@@]2(O)[C@](C)(O1)[C@@H](OC(C)=O)[C@@H](O)C1C(C)(C)CC[C@H](O)[C@@]12C (some centres not stated) | active: -3.34
6 | NCCCS(=O)(=O)[O-].[Na+] [3-Amino-1-propanesulfonic acid sodium] | inactive: 1.58
7 | COc1cc(Nc2c(C#N)cnc3cc(OCCCN4CCN(C)CC4)c(OC)cc23)c(Cl)cc1Cl [Bosutinib (SKI-606)] | inactive: 2.32
8 | C[C@H](N)[C@H](O)c1ccc(O)c(O)c1 | inactive: -1.89
9 | CN(C)CCC=C1c2ccccc2COc2ccccc21.Cl [Doxepin hydrochloride] | inactive: 3.21
10 | CSCC[C@H](NC(=O)[C@H](Cc1c[nH]c2ccccc12)NC(=O)CCNC(=O)OC(C)(C)C)C(=O)N[C@@H](CC(=O)O)C(=O)N[C@@H](Cc1ccccc1)C(N)=O [Pentagastrin] | inactive: 2.46
11 | Cc1nn(-c2ccccc2)c(C)c1C=NN1CCN(Cc2ccccc2)CC1 | inactive: 2.89
12 | COc1cc([C@H]2c3cc4c(cc3[C@@H](O[C@@H]3O[C@@H]5CO[C@@H](C)O[C@H]5[C@H](O)[C@@H]3O)[C@H]3COC(=O)[C@H]23)OCO4)cc(OC)c1O [Etoposide (VP-16)] | inactive: 1.28
13 | Clc1ccc(COC(Cn2ccnc2)c2ccc(Cl)cc2Cl)c(Cl)c1 (configuration not stated) [Miconazole] | active: -9.45
14 | NC(=O)c1cccc2cn(-c3ccc([C@@H]4CCCNC4)cc3)nc12 [Niraparib] | inactive: 0.25
15 | CC1(C)O[C@@H]2C[C@H]3[C@@H]4CCC5=CC(=O)C=C[C@]5(C)[C@@]4(F)[C@@H](O)C[C@]3(C)[C@]2(C(=O)CO)O1 [Triamcinolone acetonide] | inactive: 2.47
16 | CC(C)NCC(O)COc1ccc(COCCOC(C)C)cc1.O=C(O)/C=C/C(=O)O (configuration not stated) | inactive: 3.31
17 | CCCN1CCc2cccc3c2[C@H]1Cc1ccc(O)c(O)c1-3.Cl [R(-)-Propylnorapomorphine hydrochloride] | active: -6.79
18 | C=CCN1CCC23c4c5ccc(O)c4O[C@H]2C(=O)CC[C@@]3(O)[C@H]1C5.Cl | inactive: -0.449
19 | Cn1cc(-c2cnn3c(N)c(Br)c([C@@H]4CCCNC4)nc23)cn1 | inactive: 0.989
20 | O=c1ccc2c(OCCCCc3ccccc3)c3ccoc3cc2o1 [Psora-4] | inactive: 2.69
21 | CC(=O)O[C@]1(C)CC[C@@]23CC1C(C)(C)[C@@H]2CC[C@H]3C | inactive: 2.23
22 | C[C@H]1[C@H](C)CC[C@]2(C(=O)O)CC[C@]3(C)C(=CCC4[C@@]5(C)C[C@@H](O)[C@H](O)[C@@](C)(CO)C5[C@H](O)C[C@]43C)[C@H]12 (some centres not stated) | inactive: 1.7
23 | COc1ccc(CCn2nnnc2C2(c3ccc(C)cc3)CC2)cc1 [Mephetyl tetrazole] | inactive: 3.39

From entry 14 as far as 18, as listed above:
Row | Compound | cell-cell fusion (z-score)
14 | NC(=O)c1cccc2cn(-c3ccc([C@@H]4CCCNC4)cc3)nc12 [Niraparib] | inactive: 0.25
15 | CC1(C)O[C@@H]2C[C@H]3[C@@H]4CCC5=CC(=O)C=C[C@]5(C)[C@@]4(F)[C@@H](O)C[C@]3(C)[C@]2(C(=O)CO)O1 [Triamcinolone acetonide] | inactive: 2.47
16 | CC(C)NCC(O)COc1ccc(COCCOC(C)C)cc1.O=C(O)/C=C/C(=O)O (configuration not stated) | inactive: 3.31
17 | CCCN1CCc2cccc3c2[C@H]1Cc1ccc(O)c(O)c1-3.Cl [R(-)-Propylnorapomorphine hydrochloride] | active: -6.79
18 | C=CCN1CCC23c4c5ccc(O)c4O[C@H]2C(=O)CC[C@@]3(O)[C@H]1C5.Cl | inactive: -0.449

(cont.)

Row | Compound | cell-cell fusion (z-score)
24 | CC(C)NCC(O)c1ccc(O)c(O)c1.Cl (configuration not stated) [Isoprenaline hydrochloride] | inactive: 0.703
25 | CC(=O)SC1CC2=CC(=O)CC[C@]2(C)C2CC[C@@]3(C)C(CC[C@@]34CCC(=O)O4)C12 (some centres not stated) [Spironolactone] | inactive: 2
26 | Cc1ncc(C[n+]2csc(CCO)c2C)c(N)n1.Cl.[Cl-] [Thiamine hydrochloride] | inactive: 2.02
27 | CC(=O)OCC1=C(C(=O)[O-])N2C(=O)[C@@H](NC(=O)CSc3ccncc3)[C@H]2SC1.[Na+] | inactive: 1.38
28 | CC(=O)OCC(=O)[C@@]12N=C(C)O[C@@H]1CC1C3CCC4=CC(=O)C=C[C@]4(C)C3[C@@H](O)C[C@@]12C (some centres not stated) | inactive: 1.01
29 | CN(C)CC/C=C1/c2ccccc2COc2ccccc21.Cl | inactive: 1.73
30 | Nc1nc2ncc(=O)[nH]c2c(=O)[nH]1 | inactive: 2.53
31 | CC(C)NC(C)Cc1ccc(I)cc1.Cl (configuration not stated) [Iofetamine hydrochloride] | inactive: 1.05
32 | N=C(N)c1ccc(OCCCCCOc2ccc(C(=N)N)cc2)cc1.O=S(=O)(O)CCO.O=S(=O)(O)CCO [Pentamidine isethionate] | inactive: -0.293
33 | N=C(N)c1ccc(OCCCCCOc2ccc(C(=N)N)cc2)cc1.O=S(=O)(O)CCO.O=S(=O)(O)CCO | inactive: 2.03
34 | CC1=C(C(=O)O)N2C(=O)[C@@H](NC(=O)C(N)c3ccccc3)[C@H]2SC1 (some centres not stated) [Cephalexin hydrate] | inactive: 2.19
35 | CC1=C(C(=O)O)N2C(=O)[C@@H](NC(=O)C(N)c3ccccc3)[C@H]2SC1 (some centres not stated) | inactive: 1.08
36 | COc1ccccc1OCC(O)COC(N)=O (configuration not stated) | inactive: -0.726
37 | C#CCN(C)Cc1ccccc1.Cl [Pargyline hydrochloride] | inactive: 0.721
38 | C#CCN(C)Cc1ccccc1.Cl | inactive: 0.685
39 | CO[C@H]1CC(O[C@@H]2/C(C)=C/C[C@@H]3C[C@@H](C[C@]4(CC[C@H](C)[C@@H](C5CCCCC5)O4)O3)OC(=O)[C@@H]3C=C(C)/C(=N/O)[C@H]4OC/C(=C\C=C\[C@@H]2C)[C@]43O)O[C@@H](C)C1O (some centres not stated) | inactive: -1.71
40 | Nc1nc2c(ncn2[C@@H]2O[C@H](CO)[C@@H](O)[C@@H]2O)c(=O)[nH]1 [Ara-G hydrate] | inactive: 1.14
41 | C=C1c2cccc(O)c2C(=O)C2=C(O)[C@]3(O)C(=O)C(C(N)=O)=C(O)[C@@H](N(C)C)[C@@H]3[C@@H](O)[C@H]12.Cl [Methacycline hydrochloride] | inactive: 1.69
42 | CCCOc1cc(N)ccc1C(=O)OCCN(CC)CC.Cl | inactive: 1.44
43 | CS(=O)(=O)O.CSc1ccc2c(c1)C(N1CCN(C)CC1)Cc1ccccc1S2 (configuration not stated) | active: -4.8
44 | CCN1CCCC1CNC(=O)c1cc(S(=O)(=O)CC)c(N)cc1OC (configuration not stated) [Amisulpride] | inactive: 0.789
45 | CC(=O)CC(c1ccccc1)c1c([O-])c2ccccc2oc1=O.[Na+] (configuration not stated) [Warfarin sodium] | inactive: 3.25
46 | N[C@H](C(=O)O)[C@H](Cc1ccccc1)C(=O)O [L-Beta-threo-benzyl-aspartate] | active: -3.43

Row | Compound | cell-cell fusion (z-score)
47 | Nc1ccc(S(=O)(=O)Nc2nccs2)cc1 [Sulfathiazole] | inactive: 3
48 | O=C1C2CC=CCC2C(=O)N1SC(Cl)(Cl)Cl (configuration not stated) | inactive: 0.0224
49 | C=C1C[C@@H]2[C@H](CC[C@]3(C)C(=O)CC[C@@H]23)[C@@]2(C)C=CC(=O)C=C12 [Exemestane] | inactive: 2.12
50 | C[C@H](CCC(=O)O)[C@H]1CCC2C3C(CC[C@@]21C)[C@@]1(C)CC[C@@H](O)C[C@H]1C[C@@H]3O (some centres not stated) | inactive: 1
51 | O=c1c(-c2ccc(O)cc2)coc2cc(O)cc(O)c12 [Genistein] | inactive: 1.32
52 | CCc1cc(C(N)=S)ccn1 [Ethinamide] | inactive: 2.57
53 | C[C@]12CCC3c4ccc(OC(=O)c5ccccc5)cc4CCC3C1CCC2=O (some centres not stated) | inactive: 2.79
54 | CC1(C)S[C@@H]2[C@H](NC(=O)[C@H](N)c3ccccc3)C(=O)N2[C@H]1C(=O)[O-].[Na+] | inactive: 1.38
55 | CS(=O)(=O)c1ccc(C2=C(c3ccccc3)C(=O)OC2)cc1 | inactive: 1.9
56 | C[C@H]1COc2c(N3CCN(C)CC3)c(F)cc3c(=O)c(C(=O)O)cn1c23.C[C@H]1COc2c(N3CCN(C)CC3)c(F)cc3c(=O)c(C(=O)O)cn1c23.O [Levofloxacin Hemihydrate] | inactive: 3.61
57 | Cc1cccc(-c2nc(C(C)(C)C)[nH]c2-c2ccc3nccnc3c2)n1 | inactive: 1.66
58 | C[C@@H]1CC2C3CCC4=CC(=O)C=C[C@]4(C)[C@@]3(Cl)[C@@H](O)C[C@]2(C)[C@@]1(OC(=O)c1ccco1)C(=O)CCl (some centres not stated) | inactive: 3.91
59 | CCn1cc(C(=O)O)c(=O)c2cc(F)c(N3CCNCC3)cc21 | inactive: -0.577
60 | Cn1cnc(-c2cc3nccc(Oc4ccc(NC(=S)NC(=O)Cc5ccccc5)cc4F)c3s2)c1 | inactive: 0.997
61 | Nc1nc(CC(=O)Nc2ccc(CCNC[C@H](O)c3ccccc3)cc2)cs1 [Mirabegron] | inactive: 0.262
62 | Cc1cccc(C)c1NC(=O)C1CCCCN1C.Cl (configuration not stated) | inactive: 1.72
63 | CC(C)NCC(O)COc1ccc(CCOCC2CC2)cc1.Cl (configuration not stated) [Betaxolol hydrochloride] | inactive: -0.409
64 | CC(C)NCC(O)COc1ccc(CCOCC2CC2)cc1.Cl (configuration not stated) | inactive: 3.25
65 | CC(C)c1ccc2c(c1)c(SC(C)(C)C)c(CC(C)(C)C(=O)[O-])n2Cc1ccc(Cl)cc1.[Na+] | inactive: 2.86
66 | C/C(=C(/CCOP(=O)(O)O)SC(=O)c1ccccc1)N(C=O)Cc1cnc(C)nc1N.NCCO.NCCO | inactive: 2.86
67 | CCOc1ccc(Cc2cc([C@]34OC[C@](CO)(O3)[C@@H](O)[C@H](O)[C@H]4O)ccc2Cl)cc1 [Ertugliflozin] | inactive: 0.627
